Reference: paper doi:10.1101/2021.03.31.437858
Results are given in words; binding and its absence hold for the method and conditions named. In cells and extracts the contact can be indirect. Binding can be weak; no strength is given.

Molecular target: T1, adenine nucleotide carrier isoform 1 (SLC25A4) (bovine (endogenous in bovine heart mitochondria)) (UniProt P02722)
T1 sequence: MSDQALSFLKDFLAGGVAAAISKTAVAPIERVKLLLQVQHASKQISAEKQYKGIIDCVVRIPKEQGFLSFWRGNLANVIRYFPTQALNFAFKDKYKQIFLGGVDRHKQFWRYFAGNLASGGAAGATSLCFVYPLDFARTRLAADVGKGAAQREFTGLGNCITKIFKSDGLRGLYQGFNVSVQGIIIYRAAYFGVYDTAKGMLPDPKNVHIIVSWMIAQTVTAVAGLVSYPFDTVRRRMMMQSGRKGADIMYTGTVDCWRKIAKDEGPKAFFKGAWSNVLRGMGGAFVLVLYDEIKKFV
Assay: cross-linking

Apoptosis Inducing Factor 1 (AIFM1)
binding: binds
